Results are given in words; binding and its absence hold for the method and conditions named. In cells and extracts the contact can be indirect. Some binding calls cover weakened binding; strength is not graded here.
Biological target: Rpt1/PSMC2 (human (endogenous in HEK293A)) (UniProt P35998)
Experiment: co-IP

By UniProt entry, the sequences of proteins in these tests, tags left out.
UniProt P35998: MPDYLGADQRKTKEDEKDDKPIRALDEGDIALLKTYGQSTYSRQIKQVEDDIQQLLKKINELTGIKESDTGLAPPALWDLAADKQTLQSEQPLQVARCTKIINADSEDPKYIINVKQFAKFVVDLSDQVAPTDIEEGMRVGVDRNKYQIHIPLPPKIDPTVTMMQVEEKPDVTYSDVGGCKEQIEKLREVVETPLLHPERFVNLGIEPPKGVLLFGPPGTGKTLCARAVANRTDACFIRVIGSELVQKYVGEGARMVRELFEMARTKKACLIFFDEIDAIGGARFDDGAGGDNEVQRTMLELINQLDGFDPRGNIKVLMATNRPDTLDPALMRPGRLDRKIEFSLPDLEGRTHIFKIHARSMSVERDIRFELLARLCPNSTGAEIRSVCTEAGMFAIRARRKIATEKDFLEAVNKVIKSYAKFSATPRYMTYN
UniProt O00487: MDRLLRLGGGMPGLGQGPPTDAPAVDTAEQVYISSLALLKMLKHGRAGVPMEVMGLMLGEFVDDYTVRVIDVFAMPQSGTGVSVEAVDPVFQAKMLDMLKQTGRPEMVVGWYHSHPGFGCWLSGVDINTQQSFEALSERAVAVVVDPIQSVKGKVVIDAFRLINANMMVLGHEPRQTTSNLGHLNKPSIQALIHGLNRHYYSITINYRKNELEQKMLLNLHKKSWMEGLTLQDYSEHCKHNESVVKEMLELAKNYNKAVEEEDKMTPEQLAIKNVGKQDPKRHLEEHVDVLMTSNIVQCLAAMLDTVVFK

binding | Substance
binds | Rpn11-eGFP (from UniProt O00487 1-310)
binds | Rpn11 (unmodified, endogenous) (from UniProt O00487 1-310)
binds | Rpn11-mEos (from UniProt O00487 1-310)

From article doi:10.1101/487702
